For eight sequences, binding result and binding signal results are on record in article PMC4029728.

The chains behind the UniProt entries cited, without tags or fusion partners. Residues count along the entry.
UniProt P42224, 1-746: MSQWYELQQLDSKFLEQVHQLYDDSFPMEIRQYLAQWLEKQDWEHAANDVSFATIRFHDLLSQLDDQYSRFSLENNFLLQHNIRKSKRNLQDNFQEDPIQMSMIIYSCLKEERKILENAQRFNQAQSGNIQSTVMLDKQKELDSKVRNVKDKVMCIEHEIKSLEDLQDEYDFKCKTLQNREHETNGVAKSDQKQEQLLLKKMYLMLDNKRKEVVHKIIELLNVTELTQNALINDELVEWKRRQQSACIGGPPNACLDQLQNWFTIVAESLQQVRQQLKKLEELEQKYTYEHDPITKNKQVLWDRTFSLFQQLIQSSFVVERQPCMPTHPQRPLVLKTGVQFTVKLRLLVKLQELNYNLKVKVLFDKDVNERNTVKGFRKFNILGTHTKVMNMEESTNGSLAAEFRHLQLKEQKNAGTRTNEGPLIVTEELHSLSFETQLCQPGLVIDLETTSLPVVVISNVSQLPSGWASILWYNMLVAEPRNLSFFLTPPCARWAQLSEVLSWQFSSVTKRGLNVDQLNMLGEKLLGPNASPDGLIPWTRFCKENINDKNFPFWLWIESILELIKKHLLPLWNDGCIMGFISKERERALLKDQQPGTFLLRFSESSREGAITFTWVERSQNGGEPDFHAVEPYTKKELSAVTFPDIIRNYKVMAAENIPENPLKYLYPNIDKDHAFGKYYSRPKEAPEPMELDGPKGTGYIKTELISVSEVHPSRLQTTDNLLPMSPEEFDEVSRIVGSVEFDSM
UniProt P42224, 1-746 E559A: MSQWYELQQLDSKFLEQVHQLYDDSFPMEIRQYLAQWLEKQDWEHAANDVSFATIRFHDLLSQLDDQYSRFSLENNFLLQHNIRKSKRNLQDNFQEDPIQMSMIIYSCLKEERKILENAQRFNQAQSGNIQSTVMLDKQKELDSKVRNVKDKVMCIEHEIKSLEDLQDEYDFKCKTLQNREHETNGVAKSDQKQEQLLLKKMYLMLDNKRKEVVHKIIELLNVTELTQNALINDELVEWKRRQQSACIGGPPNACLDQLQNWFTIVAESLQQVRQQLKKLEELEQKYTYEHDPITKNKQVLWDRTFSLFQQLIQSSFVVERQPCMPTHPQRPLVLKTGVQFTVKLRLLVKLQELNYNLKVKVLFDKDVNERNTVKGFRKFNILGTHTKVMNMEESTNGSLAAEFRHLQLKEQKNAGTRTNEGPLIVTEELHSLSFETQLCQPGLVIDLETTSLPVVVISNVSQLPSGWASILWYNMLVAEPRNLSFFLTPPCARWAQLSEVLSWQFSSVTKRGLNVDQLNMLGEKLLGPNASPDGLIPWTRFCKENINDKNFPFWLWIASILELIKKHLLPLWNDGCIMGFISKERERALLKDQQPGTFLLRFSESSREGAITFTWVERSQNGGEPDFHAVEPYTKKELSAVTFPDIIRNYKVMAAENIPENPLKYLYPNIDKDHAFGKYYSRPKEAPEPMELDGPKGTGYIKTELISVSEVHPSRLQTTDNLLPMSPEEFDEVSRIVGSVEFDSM
UniProt P42224, 1-746 E563A: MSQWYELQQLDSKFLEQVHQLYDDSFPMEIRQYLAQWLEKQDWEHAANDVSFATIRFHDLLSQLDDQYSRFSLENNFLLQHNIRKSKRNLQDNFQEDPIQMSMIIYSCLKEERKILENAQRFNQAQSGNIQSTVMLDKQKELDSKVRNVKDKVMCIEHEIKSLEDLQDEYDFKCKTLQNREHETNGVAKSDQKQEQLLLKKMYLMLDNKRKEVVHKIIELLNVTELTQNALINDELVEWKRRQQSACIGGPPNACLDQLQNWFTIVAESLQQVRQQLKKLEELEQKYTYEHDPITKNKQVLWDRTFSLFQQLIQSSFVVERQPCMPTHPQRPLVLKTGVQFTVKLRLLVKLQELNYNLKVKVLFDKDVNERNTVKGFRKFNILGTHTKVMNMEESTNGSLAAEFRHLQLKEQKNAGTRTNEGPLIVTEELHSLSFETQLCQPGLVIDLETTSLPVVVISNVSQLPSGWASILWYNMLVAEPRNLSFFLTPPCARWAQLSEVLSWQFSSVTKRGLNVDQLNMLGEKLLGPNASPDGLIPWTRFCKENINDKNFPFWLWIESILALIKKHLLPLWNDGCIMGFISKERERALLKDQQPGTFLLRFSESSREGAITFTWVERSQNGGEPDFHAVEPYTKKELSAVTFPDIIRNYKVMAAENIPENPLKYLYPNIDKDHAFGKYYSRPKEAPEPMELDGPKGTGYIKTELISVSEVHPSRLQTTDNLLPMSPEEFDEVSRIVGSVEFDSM
UniProt P42224, 1-746 K567A: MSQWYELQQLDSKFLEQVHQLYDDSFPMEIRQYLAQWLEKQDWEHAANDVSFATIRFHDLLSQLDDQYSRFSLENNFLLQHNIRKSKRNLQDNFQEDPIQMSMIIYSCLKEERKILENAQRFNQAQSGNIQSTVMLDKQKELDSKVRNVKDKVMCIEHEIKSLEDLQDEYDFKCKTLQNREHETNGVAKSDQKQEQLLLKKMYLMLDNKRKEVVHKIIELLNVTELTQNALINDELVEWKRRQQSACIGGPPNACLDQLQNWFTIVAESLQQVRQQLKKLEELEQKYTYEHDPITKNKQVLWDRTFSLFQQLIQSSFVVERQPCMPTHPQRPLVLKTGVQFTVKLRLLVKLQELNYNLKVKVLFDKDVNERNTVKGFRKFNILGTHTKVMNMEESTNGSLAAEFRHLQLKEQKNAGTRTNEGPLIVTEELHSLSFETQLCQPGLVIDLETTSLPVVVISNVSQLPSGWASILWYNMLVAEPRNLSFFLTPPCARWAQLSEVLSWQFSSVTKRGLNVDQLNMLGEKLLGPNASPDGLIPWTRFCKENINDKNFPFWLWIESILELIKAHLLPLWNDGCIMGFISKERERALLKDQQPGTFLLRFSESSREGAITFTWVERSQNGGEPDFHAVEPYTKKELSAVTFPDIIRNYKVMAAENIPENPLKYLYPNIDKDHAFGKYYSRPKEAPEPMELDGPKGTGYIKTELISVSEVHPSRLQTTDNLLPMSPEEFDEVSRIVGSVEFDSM
UniProt P42224, whole entry E559A: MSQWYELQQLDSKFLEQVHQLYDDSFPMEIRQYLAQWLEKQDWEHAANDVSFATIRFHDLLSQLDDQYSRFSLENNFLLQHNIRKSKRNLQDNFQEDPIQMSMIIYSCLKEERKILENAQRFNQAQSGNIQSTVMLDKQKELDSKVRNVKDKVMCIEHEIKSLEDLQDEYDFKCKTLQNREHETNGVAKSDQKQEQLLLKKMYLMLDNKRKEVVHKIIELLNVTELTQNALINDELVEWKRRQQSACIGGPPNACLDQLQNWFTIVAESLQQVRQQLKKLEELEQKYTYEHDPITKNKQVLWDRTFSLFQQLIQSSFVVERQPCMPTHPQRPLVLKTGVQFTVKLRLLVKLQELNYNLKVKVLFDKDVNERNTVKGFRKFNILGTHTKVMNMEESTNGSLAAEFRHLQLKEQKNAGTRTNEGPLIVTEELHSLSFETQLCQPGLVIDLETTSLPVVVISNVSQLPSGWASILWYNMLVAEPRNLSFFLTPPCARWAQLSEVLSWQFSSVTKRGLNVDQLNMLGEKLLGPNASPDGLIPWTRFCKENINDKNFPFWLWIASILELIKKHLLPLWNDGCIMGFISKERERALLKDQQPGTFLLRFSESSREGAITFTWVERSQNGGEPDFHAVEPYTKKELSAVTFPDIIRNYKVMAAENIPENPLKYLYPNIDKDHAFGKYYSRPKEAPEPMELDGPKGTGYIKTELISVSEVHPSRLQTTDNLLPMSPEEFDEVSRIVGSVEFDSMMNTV
UniProt P42224, whole entry K567A: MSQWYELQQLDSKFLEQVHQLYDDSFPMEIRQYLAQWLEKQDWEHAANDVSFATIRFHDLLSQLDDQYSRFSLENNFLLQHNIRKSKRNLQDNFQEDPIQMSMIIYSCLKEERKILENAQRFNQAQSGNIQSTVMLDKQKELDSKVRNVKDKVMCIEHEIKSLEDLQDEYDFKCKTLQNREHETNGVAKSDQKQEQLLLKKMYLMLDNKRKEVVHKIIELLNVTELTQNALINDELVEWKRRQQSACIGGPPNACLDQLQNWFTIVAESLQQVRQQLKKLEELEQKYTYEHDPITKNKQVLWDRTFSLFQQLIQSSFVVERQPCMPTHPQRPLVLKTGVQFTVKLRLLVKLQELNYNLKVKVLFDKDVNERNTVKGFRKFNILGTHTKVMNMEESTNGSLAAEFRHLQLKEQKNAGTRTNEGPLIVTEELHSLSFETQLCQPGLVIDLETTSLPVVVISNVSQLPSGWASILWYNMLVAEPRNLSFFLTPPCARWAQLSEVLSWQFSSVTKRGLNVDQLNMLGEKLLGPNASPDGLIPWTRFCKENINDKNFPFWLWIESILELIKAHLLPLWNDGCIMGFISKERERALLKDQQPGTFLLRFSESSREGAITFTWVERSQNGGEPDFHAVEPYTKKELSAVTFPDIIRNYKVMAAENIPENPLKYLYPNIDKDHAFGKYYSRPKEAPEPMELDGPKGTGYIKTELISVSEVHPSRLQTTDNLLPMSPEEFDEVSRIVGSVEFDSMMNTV
UniProt P42224, whole entry E563A: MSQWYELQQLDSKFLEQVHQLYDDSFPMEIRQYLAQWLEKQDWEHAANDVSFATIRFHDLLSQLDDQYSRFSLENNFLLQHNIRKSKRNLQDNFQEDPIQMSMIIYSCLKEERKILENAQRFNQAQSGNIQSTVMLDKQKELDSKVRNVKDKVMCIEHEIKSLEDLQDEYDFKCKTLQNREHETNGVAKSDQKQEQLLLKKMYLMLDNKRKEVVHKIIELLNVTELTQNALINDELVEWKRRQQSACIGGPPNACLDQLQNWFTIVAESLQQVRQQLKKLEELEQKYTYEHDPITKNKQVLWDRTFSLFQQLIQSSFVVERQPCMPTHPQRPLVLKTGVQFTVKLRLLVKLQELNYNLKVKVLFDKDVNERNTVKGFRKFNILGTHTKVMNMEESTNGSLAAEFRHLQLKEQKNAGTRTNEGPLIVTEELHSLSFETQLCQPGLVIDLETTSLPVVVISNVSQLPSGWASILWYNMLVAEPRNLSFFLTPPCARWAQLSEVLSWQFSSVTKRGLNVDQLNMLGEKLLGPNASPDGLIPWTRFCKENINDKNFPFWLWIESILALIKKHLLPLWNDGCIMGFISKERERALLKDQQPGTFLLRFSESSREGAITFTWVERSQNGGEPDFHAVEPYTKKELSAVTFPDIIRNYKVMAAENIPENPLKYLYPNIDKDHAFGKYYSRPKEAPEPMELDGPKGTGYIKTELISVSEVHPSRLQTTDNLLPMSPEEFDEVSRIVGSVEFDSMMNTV

Where cells or extracts were used, other partners may take part. For part of these data: Negatives hold for the conditions tested. For part of these data: At least one verdict rests on a figure or table, not on a statement of the authors. The exact form of at least one protein or probe is not confirmed. For part of these data: Weaker means in comparison with the reference protein, sequence or condition of that experiment. For part of these data: Whether high values mean tight binding is not given here for every scale.

The target of data set [1] is STAT1-GFP WT (human) (UniProt P42224). As to the kind of experiment: competition EMSA (off-rate). Conditions: 750-fold unlabelled M67, hardly detectable after 10 min; EMSA: 4 ul cell extract + 1 ng 33P duplex, 15 min RT, 4% native gel at 4 C, competition on ice (EMSA buffer composition not given); pull-down 2 h at 4 C; protein in a lysate after overexpression; residues 1-746; protein details: C-terminal GFP; label: 33P by Klenow end-filling.

Data set [2] concerns the target STAT1-GFP E559A (human) (UniProt P42224). In words: competition EMSA (off-rate). Conditions: 750-fold unlabelled M67, slower dissociation than WT; EMSA: 4 ul cell extract + 1 ng 33P duplex, 15 min RT, 4% native gel at 4 C, competition on ice (EMSA buffer composition not given); pull-down 2 h at 4 C; protein in a lysate after overexpression; residues 1-746; protein details: C-terminal GFP; label: 33P by Klenow end-filling. A general note: A gel shift assay detects complexes by their altered migration in electrophoresis.

Data set [3] has as its target STAT1-GFP E563A (human) (UniProt P42224). As to the kind of experiment: competition EMSA (off-rate). The following applies: 750-fold unlabelled M67, slower dissociation than WT; EMSA: 4 ul cell extract + 1 ng 33P duplex, 15 min RT, 4% native gel at 4 C, competition on ice (EMSA buffer composition not given); pull-down 2 h at 4 C; protein in a lysate after overexpression; residues 1-746; protein details: C-terminal GFP; label: 33P by Klenow end-filling.

The target in data set [4] is STAT1-GFP WT (human) (UniProt P42224). In words: EMSA. The following applies: EMSA: 4 ul cell extract + 1 ng 33P duplex, 15 min RT, 4% native gel at 4 C, competition on ice (EMSA buffer composition not given), pull-down 2 h at 4 C, protein in a lysate after overexpression, residues 1-746, protein details: C-terminal GFP.
In data set [5] the target is STAT1-GFP K567A (human) (UniProt P42224). In words: EMSA. The following applies: EMSA: 4 ul cell extract + 1 ng 33P duplex, 15 min RT, 4% native gel at 4 C, competition on ice (EMSA buffer composition not given), pull-down 2 h at 4 C, protein in a lysate after overexpression, residues 1-746, protein details: C-terminal GFP.
Data set [6] deals with STAT1-GFP E559A (human) (UniProt P42224). In words: EMSA. The following applies: EMSA: 4 ul cell extract + 1 ng 33P duplex, 15 min RT, 4% native gel at 4 C, competition on ice (EMSA buffer composition not given), pull-down 2 h at 4 C, protein in a lysate after overexpression, residues 1-746, protein details: C-terminal GFP.
The target in data set [7] is STAT1-GFP E563A (human) (UniProt P42224). As to the kind of experiment: EMSA. The following applies: EMSA: 4 ul cell extract + 1 ng 33P duplex, 15 min RT, 4% native gel at 4 C, competition on ice (EMSA buffer composition not given), pull-down 2 h at 4 C, protein in a lysate after overexpression, residues 1-746, protein details: C-terminal GFP.
Data set [8] deals with STAT1 E559A untagged (human) (UniProt P42224). As to the kind of experiment: pull-down, Western blot. The following applies: IFNg-stimulated extract; protein in a lysate after overexpression. Background: A western blot detects proteins with antibodies after separation by electrophoresis.
The target in data set [9] is STAT1 WT untagged (human) (UniProt P42224). In words: pull-down, Western blot. Conditions: IFNg-stimulated extract, protein in a lysate after overexpression.
For data set [10], the target named is STAT1 K567A untagged (human) (UniProt P42224). As to the kind of experiment: pull-down, Western blot. The following applies: no significant difference to 2xGAS, nonspecific binding similar to E559A; protein in a lysate after overexpression.
Data set [11] has the same target. In words: Tc45 dephosphorylation protection. The following applies: protein in a lysate after overexpression.
Data set [12] has as its target STAT1 E559A untagged (human) (UniProt P42224). In words: Tc45 dephosphorylation protection. Conditions: 25 nM DNA, protein in a lysate after overexpression.
The target of data set [13] is STAT1 WT untagged (human) (UniProt P42224). In words: Tc45 dephosphorylation protection. Conditions: 25 nM DNA, protein in a lysate after overexpression.
In data set [14] the target is STAT1 E563A untagged (human) (UniProt P42224). In words: Tc45 dephosphorylation protection. The following applies: 25 nM DNA, protein in a lysate after overexpression.
Setting [15] is: label: 33P by Klenow end-filling.
[16] abbreviates: increased vs WT, label: 33P by Klenow end-filling.

Turning to “CGACATTTCCCGTAAATCTG (double strand) [M67]”, the binding result is recorded as “binds” in [1]; “binds” in [2]; “binds” in data set [3]; “binds” in [4] (setting [15]); “no binding” in [5] (virtually no binding, label: 33P by Klenow end-filling); “binds” in data set [6] (setting [16]). Further, in [7] (setting [16]), the binding result is on record as “binds”.
Take “CGTTTACCCCAAATTGACGGATTTACCCCAAC (double strand) [2xnonGAS biotin]”: the binding signal in data set [8] was 4 fold vs WT. Also, the binding result in data set [9] (4-fold below E559A) was “binds more weakly”; in data set [10], “binds”.
As to “CGTTTACCCCAAATTGACGGATTTACCCCAAC (double strand) [2xnonGAS]”, the binding result was “binds” in data set [11] (protection irrespective of GAS); “no binding” in data set [4] (below detection threshold); “no binding” in [5] (below detection threshold); “no binding” in data set [6] (below detection threshold); “no binding” in [7] (below detection threshold).
Consider “CGTTTCCCCGAAATTGACGGATTTACCCCAAC (double strand) [GAS-nonGAS]”, for which the binding result in data set [12] (more protected than WT) was “binds”; in data set [13] (less protected than E559A/E563A), “binds more weakly”; in data set [14] (more protected than WT), “binds”; in data set [11] (25 nM DNA, protection irrespective of GAS), “binds”; in data set [4] (dimer > tetramer), “binds”; in [6] (tetramer > dimer) it was “binds”. Besides, in data set [7] (tetramer > dimer), the binding result is “binds”.
Regarding “CGTTTCCCCGAAATTGACGGATTTCCCCGAAAC (double strand) [2xGAS biotin]”, the binding result in [8] and in data set [9] was “binds” in each case.
In the case of “CGTTTCCCCGAAATTGACGGATTTCCCCGAAAC (double strand) [2xGAS]”, the binding result in [12] is on record as “binds”; in data set [13], “binds”; in data set [14] it was “binds”; in [11] (25 nM DNA), “binds”; in [4] (tetramer > dimer) it was “binds”; in data set [5] (weak tetramer binding) it was “binds more weakly”. The binding result in data set [6] (tetramer > dimer) and in [7] (tetramer > dimer) was “binds” throughout.
Regarding “CTGCTTCCCTTTCCTACTAGCTGGAAATCCA (double strand) [CCL2 mutant]”, the binding result in data set [4] (setting [15]) and in data set [5] (setting [15]) was “no binding” each time.
Turning to “CTGCTTCCCTTTCCTACTTCCTGGAAATCCA (double strand) [CCL2 native]”, the binding result in [4] (setting [15]) is “binds”; in data set [5] (setting [15]), “binds more weakly”.
